Data source: PubChem BioAssay AID504793 (Drosophila RNAi Screening Center, 2011)
Aim: 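Whole-genome screen for parts of the DNA damage checkpoint at G2/M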 (primary screen). Cells: Drosophila S2R+ cells. Reagents: long dsRNA against Drosophila genes, about 0.25 µg dsRNA per well. Timing: 4 days of dsRNA, then 4 hours of drug before read-out. Treatment: doxorubicin 0.5 µM for 4 hours to cause double-strand breaks, in cells also given a low, harmless dose of dsRNA against nbs to sensitise the assay. Measurement: 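Per-well count of mitotic cells stained for phospho-histone H3 after doxorubicin exposure, used as mitotic index; counts are raw and not normalised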. Direction: mitotic cells: higher = more cells in mitosis, weaker G2 arrest. Rule for the call: 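a call needs confirmation in secondary tests, with other dsRNAs and a check of mitotic timing without damage, not just a high primary count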. Meaning of the calls: active = confirmed in follow-up tests; inactive = not confirmed.
The screen tested about 23,000 reagents; this is an unselected part of those that have a named target and a result. Over the whole deposit, 62 (0.27%) are marked active. 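Calls come from follow-up tests whose scores are not deposited, so confirmed genes may have low counts here; counts are not normalised per plate.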 The raw values are shown without normalisation. Names joined by + are all predicted targets of the reagent. Reagent sequences are not shown.

no.	gene	DRSC id	mitotic cells, replicate 1	mitotic cells, replicate 2	call
1	zetaCOP	DRSC11412	13		inactive
2	CG42506 (retired record) + CG43759	DRSC19464	4		inactive
3	CG42506 (retired record) + CG43759	DRSC19543	7		inactive
4	CG42506 (retired record) + CG43759	DRSC26393	6		inactive
5	CG6013	DRSC15947	11		inactive
6	CG6013	DRSC29573	2		inactive
7	sau	DRSC00694	2		inactive
8	E(spl)malpha-BFM	DRSC16994	8		inactive
9	E(spl)malpha-BFM	DRSC28358	11		inactive
10	l(2)gl	DRSC00825	7		inactive
11	l(2)gl	DRSC39145	4		inactive
12	mtrm	DRSC23076	16		inactive
13	Archease	DRSC16025	8		inactive
14	Glg1	DRSC11815	3		inactive
15	Glg1	DRSC11816	5		inactive
16	Glg1	DRSC11817	5		inactive
17	Cpr47Eb	DRSC06345	8		inactive
18	Cpr51A	DRSC05969	5		inactive
19	Mapmodulin	DRSC06956	7		inactive
20	Parg	DRSC18696	3		inactive
21	rumi	DRSC15177	12		inactive
22	rumi	DRSC29617	3		inactive
23	Snap29	DRSC04721	8		inactive
24	Snap29	DRSC24658	5		inactive
25	CG13405	DRSC08310	8		inactive
26	CG13405	DRSC27289	10		inactive
27	bgcn	DRSC04062	4		inactive
28	bgcn	DRSC04063	7		inactive
29	RpL11	DRSC07537	13		inactive
30	RpL11	DRSC26217	4		inactive
31	CG6749	DRSC10704	6		inactive
32	mRpS16	DRSC07152	9		inactive
33	CG5217	DRSC15740	6		inactive
34	lectin-46Ca	DRSC06612	6		inactive
35	lectin-46Ca	DRSC25469	6		inactive
36	Or59a	DRSC04631	1		inactive
37	CG13159	DRSC06283	11		inactive
38	CG13159	DRSC28093	5		inactive
39	CG4610	DRSC04477	7		inactive
40	CG4610	DRSC22397	6		inactive
41	CG4610	DRSC29602	4		inactive
42	CG18858 + CG31683	DRSC26788	10		inactive
43	CG13800 (retired record)	DRSC08334	2		inactive
44	CG13800 (retired record)	DRSC28906	2		inactive
45	CG31029	DRSC15422	5		inactive
46	CG31029	DRSC29559	7		inactive
47	Or85f	DRSC16769	13		inactive
48	Tom70	DRSC02990	2	19	inactive
49	Agpat4	DRSC10446	2		inactive
50	Agpat4	DRSC26102	7		inactive
51	Crag	DRSC18454	7		inactive
52	CG15096	DRSC06525	7		inactive
53	CG15096	DRSC29737	16		inactive
54	CG13081	DRSC02185	4		inactive
55	SkpF + CG5357 (retired record)	DRSC04120	7		inactive
56	MED23 + CG3700	DRSC04406	6		inactive
57	MED23 + CG3700	DRSC04407	11		inactive
58	MED23 + CG3700	DRSC24669	11		inactive
59	MED23 + CG3700	DRSC25453	4		inactive
60	Cyp6a19	DRSC07379	4		inactive
61	CG5447	DRSC15801	7		inactive
62	CG5447	DRSC26407	7		inactive
63	CG14079	DRSC10083	6		inactive
64	eca	DRSC22290	18		inactive
65	Gpo2	DRSC06822	6		inactive
66	bisc	DRSC04083	6		inactive
67	bisc	DRSC28459	11		inactive
68	pr	DRSC03596	6		inactive
69	mri	DRSC08259	6		inactive
70	mri	DRSC27787	6		inactive

14 entries already listed, sorted by “mitotic cells, replicate 1”, high to low:
gene	DRSC id	mitotic cells, replicate 1	mitotic cells, replicate 2	call
RpL11	DRSC07537	13		inactive
rumi	DRSC15177	12		inactive
CG13405	DRSC27289	10		inactive
Snap29	DRSC04721	8		inactive
CG13405	DRSC08310	8		inactive
Mapmodulin	DRSC06956	7		inactive
bgcn	DRSC04063	7		inactive
CG6749	DRSC10704	6		inactive
Cpr51A	DRSC05969	5		inactive
Snap29	DRSC24658	5		inactive
bgcn	DRSC04062	4		inactive
RpL11	DRSC26217	4		inactive
Parg	DRSC18696	3		inactive
rumi	DRSC29617	3		inactive

Continued:
no.	gene	DRSC id	mitotic cells, replicate 1	mitotic cells, replicate 2	call
71	SK	DRSC17387	6		inactive
72	SK	DRSC17887	15		inactive
73	SK	DRSC17888	11		inactive
74	SK	DRSC18353	11		inactive
75	SK	DRSC27622	5		inactive
76	Cpr64Ad	DRSC08284	7		inactive
77	Cpr64Ad	DRSC25264	6		inactive
78	CG15312	DRSC18000	8		inactive
79	CG15312	DRSC27198	8		inactive
80	CG6621	DRSC16076	7		inactive
81	CG6621	DRSC26979	10		inactive
82	CG6885	DRSC10740			inactive
83	CG12209	DRSC06119	6		inactive
84	CG4582	DRSC15605	13		inactive
85	TwdlB	DRSC16050	14		inactive
86	TwdlB	DRSC25071	3		inactive
87	Rbm13	DRSC17749	9		inactive
88	Rbm13	DRSC25416	2		inactive
89	Asap	DRSC06493	4		inactive
90	Asap	DRSC06830	4		inactive
91	CG1304	DRSC20494	5		inactive
92	CG1304	DRSC25704	6		inactive
93	CG42376 + cin	DRSC18752	5		inactive
94	CG42376 + cin	DRSC29294	9		inactive
95	CG30048	DRSC22205	13		inactive
96	CG31436	DRSC14661	9		inactive
97	CG31436	DRSC24566	10		inactive
98	lambdaTry	DRSC06137	7		inactive
99	nAChRbeta3	DRSC00325	2		inactive
100	CG10139	DRSC05972	2		inactive
101	Or24a	DRSC00768	4		inactive
102	Dnaaf4	DRSC02405	4		inactive
103	Shark	DRSC07680	3		inactive
104	Shark	DRSC28527	2		inactive
105	Wnt6	DRSC02795	3		inactive
106	Wnt6	DRSC26973	6		inactive
107	CG14627	DRSC18630	15		inactive
108	CG40053 (retired record)	DRSC20833	13		inactive
109	CG40053 (retired record)	DRSC28469	2		inactive
110	CG40053 (retired record)	DRSC29968	2		inactive
111	CG15152	DRSC02453	3		inactive
112	CG33098	DRSC22903	17		inactive
113	pps	DRSC16057	9		inactive
114	pps	DRSC23652	24		inactive
115	pps	DRSC26594	30		inactive
116	MED31	DRSC23432	22		inactive
117	CG17199	DRSC15192	6		inactive
118	Cka	DRSC03476			inactive
119	Cka	DRSC22858	8		inactive
120	CG30484	DRSC05457	2		inactive
121	CG13042	DRSC09923	5		inactive
122	CG13042	DRSC28618	11		inactive
123	Ir94b	DRSC21439	12		inactive
124	CG14708	DRSC14930	5		inactive
125	CG14708	DRSC25906	11		inactive
126	Acsl	DRSC07252	10		inactive
127	PGS1	DRSC16304	6		inactive
128	CG13670	DRSC10029	8		inactive
129	CG13670	DRSC26092	9		inactive
130	PIG-K	DRSC18496	9		inactive
131	CG15198	DRSC19645	6		inactive
132	Ars2	DRSC04893	6		inactive
133	uncNacbeta	DRSC00326	1		inactive
134	ppk3	DRSC04275	5		inactive
135	ppk3	DRSC25960	3		inactive
136	mab-21	DRSC18791	11		inactive
137	mab-21	DRSC26005	3		inactive
138	CG33330 (retired record)	DRSC13053	12		inactive
139	CG33330 (retired record)	DRSC15495	12		inactive
140	CG33330 (retired record)	DRSC27452	1		inactive
